This assay relates to Protein Kinase A (PKA). Briefly: Inhibition of Kemptide phosphorylation in mouse brain lysates (zirconyl sensor fluorescence quench). It is filed as biochemical. To be noted: mouse brain lysate, Chromeo642-labeled Kemptide, FIG. 18.

Structures are written as SMILES.

Regarding `CN[C@@H]1C[C@H]2O[C@@](C)([C@@H]1OC)n1c3ccccc3c3c4c(c5c6ccccc6n2c5c31)C(=O)NC4` [Staurosporine], the “inhibition of Kemptide phosphorylation” value is on record as “minimally higher potency than the PKA specific inhibitor”. The “inhibition of Kemptide phosphorylation” value (listed as staurosporine) is recorded as “almost identical to the inhibition achieved using a PKA-specific competitive substrate inhibitor”.

The values above are taken from US20110165603A1, “SMALL MOLECULE FLUORESCENT SENSORS FOR DETECTION OF POST-TRANSLATIONALMODIFICATIONS AND PROTEIN INTERACTIONS IN BIOASSAYS” (Gyrasol Technologies Inc., priority 2008, published 2011).
